Experimental data: PubChem BioAssay AID1259308 (NCATS, 2017)

Aim: 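Genes whose loss raises luciferase production in HEK293 cells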 (primary screen)
Cells: human HEK293 embryonic kidney cells stably expressing firefly luciferase (HEK-CMV-Luc2-Hygro)
Reagent: single siRNA against human genes, 0.8 pmol siRNA per well
Time to read-out: 72 h
Read-out: 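Reporter luminescence and viable-cell signal on separate replicate plates, given as percent of non-targeting control and median/MAD z-scores, plus per-cell luciferase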
Direction: total luciferase, z-score and total luciferase, % of control: higher = more reporter protein produced
Hit rule: 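Active when the median/MAD z-score for overall luciferase is greater than 3; a gene was taken forward for validation with new siRNAs if at least two of its three siRNAs passed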
Calls: active = raised luciferase; inactive = no rise
The deposit covers about 59,000 reagents; shown is a random part of them. About 1,510 of all reagents (2.6%) were called active. 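Calls use total luciferase alone and ignore viability, so some active siRNAs may act by altering cell number.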 Reagents against one gene are numbered here. Not all columns of the deposit are shown.

For SMC4 #1, what was measured?
total luciferase, z-score: -0.567; total luciferase, % of control: 70.6; outcome: inactive

What did the screen give for SMC4 #2?
total luciferase, z-score: 0.454; total luciferase, % of control: 90.9; outcome: inactive

For SMC4 #3, how do the results read?
total luciferase, z-score: -0.406; total luciferase, % of control: 73.8; outcome: inactive

Which result is listed for GTSF1 #1?
total luciferase, z-score: -0.496; total luciferase, % of control: 72; outcome: inactive

For GTSF1 #2, what was measured?
total luciferase, z-score: 0.76; total luciferase, % of control: 97; outcome: inactive

How did the screen score GTSF1 #3?
total luciferase, z-score: -0.846; total luciferase, % of control: 65.1; outcome: inactive

With ELP5 #1, what does the deposit list?
total luciferase, z-score: -0.304; total luciferase, % of control: 75.8; outcome: inactive

Which result is listed for ELP5 #2?
total luciferase, z-score: 0.61; total luciferase, % of control: 94; outcome: inactive

What is on record for ELP5 #3?
total luciferase, z-score: 0.896; total luciferase, % of control: 99.7; outcome: inactive

What is on record for ZMIZ2 #1?
total luciferase, z-score: -0.375; total luciferase, % of control: 74.4; outcome: inactive

How did the screen score ZMIZ2 #2?
total luciferase, z-score: -0.416; total luciferase, % of control: 73.6; outcome: inactive

For ZMIZ2 #3, what was measured?
total luciferase, z-score: 0.0103; total luciferase, % of control: 82.1; outcome: inactive

In a second layout: results already given.
| target | reagent no. | total luciferase, z-score | total luciferase, % of control | outcome |
| --- | --- | --- | --- | --- |
| ZMIZ2 | 1 | -0.375 | 74.4 | inactive |
| ZMIZ2 | 2 | -0.416 | 73.6 | inactive |
